Measured values reported in PubChem BioAssay (EPA / NIEHS).
This list was built around the results that the source calls inconclusive (neither active nor inactive); the mix of calls is not that of the screen. A potency beside an inconclusive call is a rough fit, not a confirmed value. Active and inactive are the calls of the source. The calls were made as follows: active = hit-call score of the fitted dose curve at least 0.9, where 1 is the maximum; inconclusive = response in the unintended direction; inactive = score below 0.9.

Chains of the proteins cited; added tags and fusions are not shown. Lines headed by an entry give the natural chain unless they say otherwise; changes in a name come on top.
UniProt P04798: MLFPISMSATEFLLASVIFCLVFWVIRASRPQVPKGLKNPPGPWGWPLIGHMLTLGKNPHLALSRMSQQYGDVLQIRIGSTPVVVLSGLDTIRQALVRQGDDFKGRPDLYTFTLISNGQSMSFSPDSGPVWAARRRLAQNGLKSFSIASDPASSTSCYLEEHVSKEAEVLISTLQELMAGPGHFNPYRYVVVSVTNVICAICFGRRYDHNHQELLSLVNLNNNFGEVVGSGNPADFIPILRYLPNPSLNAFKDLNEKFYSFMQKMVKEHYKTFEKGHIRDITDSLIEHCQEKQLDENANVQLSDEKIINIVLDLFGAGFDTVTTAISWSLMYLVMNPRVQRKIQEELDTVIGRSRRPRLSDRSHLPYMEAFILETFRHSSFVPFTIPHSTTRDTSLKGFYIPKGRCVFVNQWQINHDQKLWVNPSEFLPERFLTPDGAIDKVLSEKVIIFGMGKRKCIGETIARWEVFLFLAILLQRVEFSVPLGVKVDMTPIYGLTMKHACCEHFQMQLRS

biological target: human CYP1A1, CYP1A1 (gene 1543) (UniProt P04798); test: NVS_ADME_hCYP1A1: NovaScreen (NVS) CYP450-related Enzyme Activity (ADME) Assay for human CYP1A1 (AID 2283100)
Procedure: NVS_ADME_hCYP1A1 is a biochemical, single-readout assay that uses extracted gene-proteins in a cell-free assay. Measurements were taken 1 hour after chemical dosing in a 96-well plate.NVS_ADME_hCYP1A1 is one of one assay component(s) measured or calculated from the NVS_ADME_hCYP1A1 assay. It is designed to make measurements of enzyme activity, a form of enzyme reporter, as detected with fluorescence intensity signals by Fluorescence technology.Data from the assay component NVS_ADME_hCYP1A1 was analyzed into 1 assay endpoint. This assay endpoint, NVS_ADME_hCYP1A1, was analyzed in the positive analysis fitting direction relative to Acetonitrile as the negative control and baseline of activity. Using a type of enzyme reporter, loss-of-signal activity can be used to understand changes in the enzymatic activity as they relate to the gene CYP1A1. Furthermore, this assay endpoint can be referred to as a primary readout, because this assay has produced multiple assay endpoints where this one serves a enzymatic activity function. To generalize the intended target to other relatable targets, this assay endpoint is annotated to the cyp intended target family, where the subfamily is xenobiotic metabolism.
Binding assays used specific radioligands (tritiated, iodinated) with non-radioactive competitive displacement ligands in agonist or antagonist protocols (as indicated) and various reference compounds and inhibitors to titrate specific binding to receptors and transporters. Most enzyme assays (CYPs, kinases, phosphatases, proteases, HDACs) used recombinant protein and specific substrates (fluorescence mostly, some colorimetric and radioactive) and inhibitors, followed by a biochemical separation of substrate and product. All assays for the biochemical HTS were initially run in duplicate at a single concentration (10 uM for CYP450 assays and 25 uM for all others). Assay-chemical combinations meeting a pre-defined threshold (e.g., 30% inhibition and other criteria defined below) were then run in singleton concentration-response format with maximum concentration of 20 uM for CYPs and 50 uM for all others. Each assay was run with positive and negative controls, and concurrent controls on every plate. The follow-up (secondary) screen tested active chemical-pairs in concentration series, as well as a few additional assays not tested in the primary screen, some selected negative inactives, and several cases re-run in the concentration series for confirmatory purposes.

SMILES | AC50 | outcome
CCn1nc(C)c2c1C(=O)NCC(c1ccc(O)cc1)=N2 | inconclusive: 0.141 µM | 
CC1=C(/C=C/C(C)=C/C=C/C(C)=C/C(=O)O)C(C)(C)CCC1 | active: 1.43 µM | 
O=C1CCC(N2C(=O)c3ccccc3C2=O)C(=O)N1 (configuration not stated) | inconclusive: 0.352 µM | 
Fc1ccccc1[C@@H](F)COC1CCC(Nc2ncnc3[nH]ncc23)CC1 (some centres not stated) |  | inactive
CN(C)CCCN1c2ccccc2Sc2ccc(Cl)cc21 |  | inactive
CC(=O)OCCOCCOCCOC(C)=O | inconclusive: 10 µM | 
CCCCC(CC)COP(=O)(OCC(CC)CCCC)OCC(CC)CCCC (configuration not stated) | inconclusive: 10 µM | 
CCOCCO | inconclusive: 10 µM | 
CCCCCCC(=O)OCC | inconclusive: 10 µM | 
NNC(=O)c1ccncc1 | inconclusive: 0.0813 µM | 
CCCCCCc1ccc(O)cc1O | inconclusive: 0.717 µM | 
CCNc1nc(N)nc(Cl)n1 | inconclusive: 19.2 µM | 

As entered above:
AC50, O=C1CCC(N2C(=O)c3ccccc3C2=O)C(=O)N1 (configuration not stated) is entered as inconclusive: 0.352 µM
AC50, CC(=O)OCCOCCOCCOC(C)=O is entered as inconclusive: 10 µM
